The list shows a part of the results.
Legend:
Assay in all cases: log2 fold change, soluble protein after heating vs DMSO (PISA); higher = thermal stabilisation; K562 lysate, 10 uM; active = over 0.2 and 3.5 SD of the protein, either way, in both replicates (recomputed)
ibrutinib = compound: C=CC(=O)N1CCC[C@@H](n2nc(-c3ccc(Oc4ccccc4)cc3)c3c(N)ncnc32)C1 [ibrutinib]
Procedure, shortened: (§1)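 Dounce homogenisation of K562 pellets in PBS pH 7.4 with 1 mM MgCl2 produced a crude extract, used at 1 mg/mL protein. Exposure to 10 μM compound lasted 30 min, and aliquots were then heated for 3 min across 48°C-58°C, pooled and brought to 0.5% NP-40 at 4°C. The supernatant after 21,000xg for 90 min was quantified by TMTpro 16plex LC-MS/MS with channel sums equalised. Duplicate values are given as log-two fold change in thermal stability relative to solvent controls.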

By UniProt entry, the sequences of proteins in these tests, tags left out. Where a name states a change or a piece, a line headed by the entry shows the natural chain unless it says otherwise.
UniProt Q8NFZ5: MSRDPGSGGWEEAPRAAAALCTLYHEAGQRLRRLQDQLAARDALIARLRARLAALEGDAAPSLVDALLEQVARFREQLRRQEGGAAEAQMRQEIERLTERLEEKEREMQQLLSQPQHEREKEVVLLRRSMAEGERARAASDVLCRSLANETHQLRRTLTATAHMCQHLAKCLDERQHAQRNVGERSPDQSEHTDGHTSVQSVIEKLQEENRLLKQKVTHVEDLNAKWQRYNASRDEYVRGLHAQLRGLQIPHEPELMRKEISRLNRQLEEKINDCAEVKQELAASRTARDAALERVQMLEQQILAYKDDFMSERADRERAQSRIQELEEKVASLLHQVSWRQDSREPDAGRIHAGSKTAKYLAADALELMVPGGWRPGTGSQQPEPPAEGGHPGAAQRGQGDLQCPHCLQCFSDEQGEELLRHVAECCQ
UniProt Q96A57: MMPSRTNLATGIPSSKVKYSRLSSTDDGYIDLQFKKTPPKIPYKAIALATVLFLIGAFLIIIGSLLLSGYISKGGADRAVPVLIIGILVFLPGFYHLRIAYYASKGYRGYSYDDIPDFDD
UniProt Q5JTV8: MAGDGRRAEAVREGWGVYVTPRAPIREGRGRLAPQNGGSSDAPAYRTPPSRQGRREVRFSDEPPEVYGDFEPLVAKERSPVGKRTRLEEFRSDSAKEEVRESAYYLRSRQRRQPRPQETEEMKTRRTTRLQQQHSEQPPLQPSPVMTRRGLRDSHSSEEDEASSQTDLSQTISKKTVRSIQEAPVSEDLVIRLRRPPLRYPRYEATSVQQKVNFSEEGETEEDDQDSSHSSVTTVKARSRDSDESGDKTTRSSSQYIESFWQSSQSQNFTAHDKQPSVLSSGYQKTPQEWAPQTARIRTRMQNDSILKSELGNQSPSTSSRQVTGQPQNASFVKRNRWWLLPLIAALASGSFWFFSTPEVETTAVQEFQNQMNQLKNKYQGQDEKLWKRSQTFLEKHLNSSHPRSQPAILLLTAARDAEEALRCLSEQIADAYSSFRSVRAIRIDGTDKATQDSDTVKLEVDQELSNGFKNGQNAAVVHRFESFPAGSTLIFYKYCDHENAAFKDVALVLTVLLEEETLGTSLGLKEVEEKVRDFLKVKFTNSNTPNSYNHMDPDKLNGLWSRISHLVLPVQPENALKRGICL
UniProt Q9NS69: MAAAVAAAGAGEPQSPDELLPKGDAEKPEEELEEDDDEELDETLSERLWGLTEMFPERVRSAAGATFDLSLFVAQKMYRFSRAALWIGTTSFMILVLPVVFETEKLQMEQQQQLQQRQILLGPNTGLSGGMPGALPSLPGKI
UniProt A5PLL7: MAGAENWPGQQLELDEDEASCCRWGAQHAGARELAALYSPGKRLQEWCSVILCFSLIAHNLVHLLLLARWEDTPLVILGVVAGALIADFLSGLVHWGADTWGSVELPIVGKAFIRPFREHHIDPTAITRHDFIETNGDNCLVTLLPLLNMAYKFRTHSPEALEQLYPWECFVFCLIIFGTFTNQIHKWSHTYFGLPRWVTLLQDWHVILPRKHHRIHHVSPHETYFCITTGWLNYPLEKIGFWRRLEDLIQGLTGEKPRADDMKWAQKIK
UniProt Q9BTX3: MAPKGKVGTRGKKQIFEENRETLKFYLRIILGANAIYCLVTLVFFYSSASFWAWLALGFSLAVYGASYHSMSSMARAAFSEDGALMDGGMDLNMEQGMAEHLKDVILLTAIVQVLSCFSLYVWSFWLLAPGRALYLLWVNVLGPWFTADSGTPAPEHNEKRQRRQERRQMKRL
UniProt O43399: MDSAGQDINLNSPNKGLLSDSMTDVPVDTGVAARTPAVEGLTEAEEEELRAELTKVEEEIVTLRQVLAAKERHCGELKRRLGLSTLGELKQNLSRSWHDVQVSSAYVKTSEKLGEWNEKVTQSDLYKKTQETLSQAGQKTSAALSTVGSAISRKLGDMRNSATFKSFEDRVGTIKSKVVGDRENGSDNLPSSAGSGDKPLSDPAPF
UniProt P62328: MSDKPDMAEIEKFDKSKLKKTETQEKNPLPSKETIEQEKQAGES
UniProt Q5BJD5: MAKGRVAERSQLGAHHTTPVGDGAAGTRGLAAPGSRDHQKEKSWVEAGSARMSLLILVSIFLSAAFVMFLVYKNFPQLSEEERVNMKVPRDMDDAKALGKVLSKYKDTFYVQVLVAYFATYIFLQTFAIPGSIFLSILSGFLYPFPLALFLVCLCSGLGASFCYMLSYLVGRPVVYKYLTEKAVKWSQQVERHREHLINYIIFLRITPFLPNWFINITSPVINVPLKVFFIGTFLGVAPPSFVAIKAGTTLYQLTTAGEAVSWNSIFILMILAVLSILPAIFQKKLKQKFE
UniProt P63313: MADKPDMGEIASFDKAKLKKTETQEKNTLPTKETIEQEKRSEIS
UniProt Q16890: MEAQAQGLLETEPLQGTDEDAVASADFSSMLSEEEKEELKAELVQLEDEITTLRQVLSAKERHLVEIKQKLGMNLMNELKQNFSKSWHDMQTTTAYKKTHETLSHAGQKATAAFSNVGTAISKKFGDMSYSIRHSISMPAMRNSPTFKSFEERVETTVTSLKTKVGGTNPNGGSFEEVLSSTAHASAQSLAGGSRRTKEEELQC
UniProt Q96B49: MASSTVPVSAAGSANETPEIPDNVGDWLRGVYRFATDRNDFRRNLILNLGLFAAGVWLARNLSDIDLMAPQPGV
UniProt Q96HH6: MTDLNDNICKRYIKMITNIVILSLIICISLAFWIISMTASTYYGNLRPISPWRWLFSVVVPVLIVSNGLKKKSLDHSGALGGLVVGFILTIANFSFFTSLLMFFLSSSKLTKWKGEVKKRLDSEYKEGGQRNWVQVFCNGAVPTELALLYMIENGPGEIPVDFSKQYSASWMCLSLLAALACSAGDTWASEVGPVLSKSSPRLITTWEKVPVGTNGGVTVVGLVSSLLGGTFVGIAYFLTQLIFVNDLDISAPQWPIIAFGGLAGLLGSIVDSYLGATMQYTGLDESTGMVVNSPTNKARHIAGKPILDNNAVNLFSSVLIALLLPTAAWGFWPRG
UniProt Q5T292: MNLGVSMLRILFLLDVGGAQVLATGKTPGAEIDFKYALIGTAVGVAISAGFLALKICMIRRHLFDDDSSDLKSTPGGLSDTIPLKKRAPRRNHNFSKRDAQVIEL
UniProt Q9BXS4: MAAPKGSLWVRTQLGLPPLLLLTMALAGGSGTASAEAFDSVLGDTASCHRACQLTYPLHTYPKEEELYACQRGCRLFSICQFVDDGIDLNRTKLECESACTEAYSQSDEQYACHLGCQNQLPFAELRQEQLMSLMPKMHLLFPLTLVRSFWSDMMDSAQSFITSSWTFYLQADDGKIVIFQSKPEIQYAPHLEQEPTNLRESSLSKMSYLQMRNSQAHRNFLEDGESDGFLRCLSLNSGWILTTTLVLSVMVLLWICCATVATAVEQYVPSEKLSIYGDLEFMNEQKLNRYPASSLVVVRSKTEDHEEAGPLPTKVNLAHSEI
UniProt Q0VDI3: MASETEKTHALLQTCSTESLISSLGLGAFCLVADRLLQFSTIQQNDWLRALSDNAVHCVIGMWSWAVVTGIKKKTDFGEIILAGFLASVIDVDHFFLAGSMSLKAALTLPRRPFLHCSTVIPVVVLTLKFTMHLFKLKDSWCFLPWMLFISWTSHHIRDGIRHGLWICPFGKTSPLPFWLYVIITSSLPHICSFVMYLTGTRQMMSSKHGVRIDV
UniProt Q86W33: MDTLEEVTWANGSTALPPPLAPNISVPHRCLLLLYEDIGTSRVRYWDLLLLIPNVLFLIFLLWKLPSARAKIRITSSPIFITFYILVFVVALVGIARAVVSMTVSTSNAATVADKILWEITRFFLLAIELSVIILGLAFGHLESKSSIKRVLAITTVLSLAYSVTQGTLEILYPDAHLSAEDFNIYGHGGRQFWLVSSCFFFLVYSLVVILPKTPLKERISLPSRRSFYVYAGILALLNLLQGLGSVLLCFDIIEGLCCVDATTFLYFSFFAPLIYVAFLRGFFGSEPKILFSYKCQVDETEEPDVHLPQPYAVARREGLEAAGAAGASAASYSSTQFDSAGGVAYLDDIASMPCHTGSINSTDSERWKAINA

[1] = compound: CC(=O)c1cnc2ccc(-c3cc(Cl)c(O)c(Cl)c3)nc2c1N[C@H]1CC[C@H](CN(C)C)CC1
Procedure, shortened: as §1

[2] = compound: CC(C)C1=C2N=C(C=C(N2N=C1)NCC3=CC=CC=C3)NCCCCCCN
Procedure, shortened: as §1

[3] = compound: CC1=C(C(CC(=O)N1)C2=CC=C(C=C2)C(F)(F)F)C(=O)NC3=C(C=C4C(=C3)C=NN4)F
Procedure, shortened: as §1

[4] = compound: CC1=C(C=C(C=C1)NC(=O)C2=CC(=CC=C2)C(C)(C)C#N)NC3=CC4=C(C=C3)N=CN(C4=O)C
Procedure, shortened: as §1

[5] = compound: CC1=CC=C(C=C1)SC2=C3C=C(SC3=CN=C2)C(=O)N
Procedure, shortened: as §1

vemurafenib = compound: CCCS(=O)(=O)Nc1ccc(F)c(C(=O)c2c[nH]c3ncc(-c4ccc(Cl)cc4)cc23)c1F [vemurafenib]
Procedure, shortened: as §1

[6] = compound: CCCS(=O)(=O)Nc1ccc(F)c(C(=O)c2c[nH]c3ncc(Cl)cc23)c1F
Procedure, shortened: as §1

barasertib = compound: CCN(CCCOc1ccc2c(Nc3cc(CC(=O)Nc4cccc(F)c4)[nH]n3)ncnc2c1)CCOP(=O)(O)O [barasertib]
Procedure, shortened: as §1

[7] = compound: CC[C@@H]1C(=O)N(C)c2cnc(Nc3ccc(C(=O)NC4CCN(C)CC4)cc3OC)nc2N1C1CCCC1
Procedure, shortened: as §1

volasertib = compound: CC[C@@H]1C(=O)N(C)c2cnc(Nc3ccc(C(=O)N[C@H]4CC[C@H](N5CCN(CC6CC6)CC5)CC4)cc3OC)nc2N1C(C)C [volasertib]
Procedure, shortened: as §1

[8] = compound: CCn1cc(-c2ccnc3[nH]c(-c4cccc(CN(C)C)c4)cc23)c(-c2ccc(NC(=O)N(C)C)cc2)n1
Procedure, shortened: as §1

[9] = compound: CN1CCC(CNc2ccc3ncc(-c4cccc(OC(F)(F)F)c4)n3n2)CC1
Procedure, shortened: as §1

sotrastaurin = compound: CN1CCN(c2nc(C3=C(c4c[nH]c5ccccc45)C(=O)NC3=O)c3ccccc3n2)CC1 [sotrastaurin]
Procedure, shortened: as §1

ralimetinib = compound: CC(C)(C)Cn1c(N)nc2ccc(-c3[nH]c(C(C)(C)C)nc3-c3ccc(F)cc3)nc21 [ralimetinib]
Procedure, shortened: as §1

[10] = compound: CC(C)(O)CC(=O)NCCn1ccc2ncnc(Nc3ccc(Oc4cccc(C(F)(F)F)c4)c(Cl)c3)c21
Procedure, shortened: as §1

[11] = compound: CC1=C(C2=C(C=C1)C(=O)C3=CC=CC=C3N2CCCN)C
Procedure, shortened: as §1

[12] = compound: CC1=C(C=C(C=C1)NC(=O)C2=CC(=CC=C2)N(C)C)NC(=O)C3=CC=C(C=C3)O
Procedure, shortened: as §1

[13] = compound: CCn1c(C(=O)N(C2CC2)C2CC2)cc2c3c(ncn3C)c(Nc3cc(C)n(C)n3)nc21
Procedure, shortened: as §1

saracatinib = compound: CN1CCN(CCOc2cc(OC3CCOCC3)c3c(Nc4c(Cl)ccc5c4OCO5)ncnc3c2)CC1 [saracatinib]
Procedure, shortened: as §1

Measured: log2 fold change

TNIP2 (UniProt Q8NFZ5)
inactive: ibrutinib 0.114 | [1] -0.028 | [2] 0.08 | [3] -0.018 | [4] 0.11 | [5] 0.078 | vemurafenib -0.083 | [6] -0.096 | barasertib 0.074 | [7] 0.114 | volasertib -0.041 | [8] -0.191 | [9] 0 | sotrastaurin 0.104

TMEM230 isoform 2 (UniProt Q96A57)
inactive: ibrutinib 0.015 | [1] -0.012 | ralimetinib 0.102 | [10] -0.055 | [2] 0.114 | [11] -0.033 | [4] -0.049 | [12] 0.04 | [5] -0.053 | vemurafenib -0.011 | [6] 0.011 | barasertib 0.091 | [7] 0.115 | volasertib 0.079 | [13] 0.115 | [8] -0.012 | [9] 0.023 | saracatinib 0.033 | sotrastaurin 0.073

TOR1AIP1 (UniProt Q5JTV8)
inactive: ibrutinib -0.064 | [1] 0.02 | [2] 0.252 | [3] -0.392 | [11] 0.146 | [5] -0.083 | vemurafenib 0.06 | [6] -0.096 | barasertib -0.007 | volasertib 0.053 | saracatinib 0.128

TOMM22 (UniProt Q9NS69)
inactive: ibrutinib -0.034 | [1] -0.015 | ralimetinib -0.001 | [10] -0.047 | [2] 0.007 | [3] -0.029 | [11] -0.008 | [4] 0.086 | [12] -0.014 | [5] 0.019 | vemurafenib 0.02 | [6] 0.009 | barasertib 0.062 | [7] 0.06 | volasertib 0.039 | [13] 0.011 | [8] -0.064 | [9] 0.014 | saracatinib -0.018 | sotrastaurin -0.029

TMEM189 (UniProt A5PLL7)
inactive: ibrutinib 0.059 | [1] 0.046 | ralimetinib 0.046 | [10] -0.026 | [2] -0.017 | [3] 0.026 | [11] -0.022 | [4] 0.108 | [12] -0.015 | [5] -0.123 | [6] -0.11 | barasertib 0.111 | [7] 0.098 | volasertib 0.062 | [13] -0.081 | [8] -0.215 | [9] 0.021 | saracatinib 0.001 | sotrastaurin -0.005

TMEM208 (UniProt Q9BTX3)
inactive: ibrutinib 0.019 | [1] 0.014 | ralimetinib 0.073 | [10] -0.127 | [2] -0.029 | [3] 0.042 | [11] -0.194 | [4] 0.088 | [12] 0.042 | [5] -0.45 | [6] -0.005 | barasertib 0 | [7] -0.113 | volasertib -0.081 | [13] 0.027 | [8] -0.369 | [9] 0.246 | saracatinib 0.087 | sotrastaurin 0.063

TPD52L2 isoform 7 (UniProt O43399)
inactive: ibrutinib -0.016 | [1] 0.017 | ralimetinib -0.013 | [10] 0.01 | [2] -0.013 | [3] 0.023 | [11] -0.024 | [4] 0.007 | [12] -0.006 | [5] -0.001 | vemurafenib -0.02 | [6] -0.033 | barasertib 0.045 | [7] 0.048 | volasertib 0.017 | [13] 0.011 | [8] -0.14 | [9] 0.207 | saracatinib 0.003 | sotrastaurin 0.034

TMSB4X (UniProt P62328)
inactive: ibrutinib 0.519 | [1] -0.03 | ralimetinib 0 | [10] -0.072 | [2] 0.033 | [3] 0.122 | [4] -0.025 | [12] 0.075 | [5] -0.064 | [6] -0.068 | barasertib 0.056 | [7] 0.084 | volasertib 0.104 | [13] -0.187 | [8] -0.191 | [9] 0.371 | sotrastaurin 0.205

TPCN1 isoform 3 (UniProt Q9ULQ1)
inactive: ibrutinib -0.046 | [1] -0.007 | ralimetinib -0.095 | [10] -0.068 | [2] -0.001 | [4] 0.001 | [12] -0.009 | [5] 0.027 | vemurafenib -0.055 | [6] -0.04 | barasertib 0.063 | [7] 0.033 | volasertib 0.015 | [13] -0.017 | [8] -0.12 | [9] 0.012 | sotrastaurin 0.065

TMEM41B (UniProt Q5BJD5)
inactive: ibrutinib 0.018 | [1] -0.042 | ralimetinib 0.122 | [10] -0.043 | [2] -0.07 | [11] -0.077 | [4] -0.087 | [12] -0.143 | [5] 0.181 | [6] -0.011 | barasertib 0.302 | [7] -0.036 | volasertib -0.012 | [13] -0.294 | [8] 0.075 | [9] -0.113 | saracatinib 0 | sotrastaurin -0.061

TMSB10 (UniProt P63313)
inactive: ibrutinib 0 | [1] -0.183 | ralimetinib -0.011 | [10] -0.025 | [2] -0.021 | [3] -0.059 | [11] 0.071 | [4] 0.106 | [12] -0.016 | [5] 0.049 | vemurafenib 0.015 | [6] -0.149 | barasertib 0.14 | [7] 0.03 | volasertib 0.09 | [13] 0.051 | [8] 0.096 | [9] -0.138 | saracatinib -0.148 | sotrastaurin -0.078

TPD52L1 (UniProt Q16890)
inactive: ibrutinib 0.095 | [1] -0.032 | ralimetinib -0.052 | [10] -0.037 | [2] 0.006 | [3] 0.031 | [11] 0.024 | [4] -0.045 | [12] -0.062 | [5] -0.038 | vemurafenib -0.017 | [6] -0.005 | barasertib 0.027 | [7] 0.062 | volasertib 0.043 | [13] 0.016 | [8] 0.048 | [9] 0.089 | saracatinib 0.033 | sotrastaurin -0.045

TOMM6 (UniProt Q96B49)
inactive: ibrutinib 0.12 | [2] -0.035 | [11] -0.143 | vemurafenib 0.121 | barasertib 0.205 | [7] 0.083 | [8] -0.02 | [9] 0 | saracatinib 0.017

Reprinted from the results shown (four entries):
TMEM41B (UniProt Q5BJD5)
inactive: ibrutinib 0.018 | [1] -0.042 | ralimetinib 0.122 | [10] -0.043 | [2] -0.07 | [11] -0.077 | [4] -0.087 | [12] -0.143 | [5] 0.181 | [6] -0.011 | barasertib 0.302 | [7] -0.036 | volasertib -0.012 | [13] -0.294 | [8] 0.075 | [9] -0.113 | saracatinib 0 | sotrastaurin -0.061

TMSB10 (UniProt P63313)
inactive: ibrutinib 0 | [1] -0.183 | ralimetinib -0.011 | [10] -0.025 | [2] -0.021 | [3] -0.059 | [11] 0.071 | [4] 0.106 | [12] -0.016 | [5] 0.049 | vemurafenib 0.015 | [6] -0.149 | barasertib 0.14 | [7] 0.03 | volasertib 0.09 | [13] 0.051 | [8] 0.096 | [9] -0.138 | saracatinib -0.148 | sotrastaurin -0.078

TPD52L1 (UniProt Q16890)
inactive: ibrutinib 0.095 | [1] -0.032 | ralimetinib -0.052 | [10] -0.037 | [2] 0.006 | [3] 0.031 | [11] 0.024 | [4] -0.045 | [12] -0.062 | [5] -0.038 | vemurafenib -0.017 | [6] -0.005 | barasertib 0.027 | [7] 0.062 | volasertib 0.043 | [13] 0.016 | [8] 0.048 | [9] 0.089 | saracatinib 0.033 | sotrastaurin -0.045

TOMM6 (UniProt Q96B49)
inactive: ibrutinib 0.12 | [2] -0.035 | [11] -0.143 | vemurafenib 0.121 | barasertib 0.205 | [7] 0.083 | [8] -0.02 | [9] 0 | saracatinib 0.017

(cont.)

TMEM19 (UniProt Q96HH6)
inactive: [1] 0.032 | ralimetinib 0.169 | [10] 0.007 | [2] 0.129 | [4] -0.152 | [12] 0.037 | [5] 0.188 | vemurafenib -0.098 | [6] -0.007 | [7] -0.126 | volasertib -0.02 | [13] 0.092 | sotrastaurin -0.072

TMEM273 isoform 2 (UniProt Q5T292)
inactive: ibrutinib 0.1 | ralimetinib 0.084 | [10] 0.035 | [2] -0.056 | [4] 0.165 | [12] 0.058 | barasertib 0.085 | [13] -0.184 | sotrastaurin 0.069

TMEM59 (UniProt Q9BXS4)
inactive: ralimetinib 0.05 | [10] -0.109 | [12] -0.137 | [13] 0.041 | [8] -0.003 | [9] -0.001

TMEM267 (UniProt Q0VDI3)
inactive: ibrutinib 0.071 | ralimetinib 0.066 | [10] 0.043 | [2] -0.028 | [3] -0.099 | [4] 0.217 | [12] 0.064 | barasertib 0.023 | [13] -0.046 | [8] 0.053 | [9] 0.004 | sotrastaurin 0.016

TPRA1 (UniProt Q86W33)
inactive: [1] -0.104 | ralimetinib -0.071 | [10] 0.014 | [2] 0.009 | [11] -0.019 | [4] 0.021 | [12] -0.029 | [5] -0.183 | [6] -0.019 | volasertib -0.032 | [13] -0.102 | [8] -0.048 | [9] 0.008 | saracatinib 0.067 | sotrastaurin 0.004
